{"source": "PubChem BioAssay AID901", "about": "(National Center for Advancing Translational Sciences (NCATS), 2007)", "note": "Some of the results follow. These are further read-outs of the screen, such as a control signal, another cell line or another target. No call is given for them. The list favours compounds with an active or inconclusive main result. Potencies come from curve fits of mixed quality, noted in brackets."}
{"test": "qHTS Assay for Identifying the Cell-Membrane Permeable IMPase Inhibitors", "conditions": "CHO-M1 cells, IP1 accumulation, HTRF TR-FRET ratio; measured here: donor channel 620 nm AC50"}
{"compound": "CCOc1ccc(CCNC(=O)c2ccc(N3CCCC3=O)cc2)cc1OCC", "AC50": "5.01 µM [rising, single point]"}
{"compound": "COC(=O)CSc1nnc(CNC(=O)c2ccccc2OC)n1C", "AC50": "31.6 µM [falling, partial curve]"}
{"compound": "Fc1cccc(CSc2ncnc3c2oc2ccccc23)c1", "AC50": "20 µM [rising, single point]"}
{"compound": "S=C(c1ccc(-c2ccccc2Cl)o1)N1CCOCC1", "AC50": "1 µM [falling, full curve]"}
{"compound": "COC(=O)C(CC(C)C)NC(=O)CSc1nc(-c2ccccc2)c(C#N)c(=O)[nH]1", "note": "(configuration not stated)", "AC50": "12.6 µM [rising, single point]"}
{"compound": "Cc1ccc(-n2c(SCC(=O)Nc3ccc4c(c3)OCO4)nnc2-c2ccccn2)cc1", "AC50": "0.00501 µM [falling, full curve, poor fit]"}
{"compound": "O=C(Nc1ccccc1)OCc1cn(-c2ccc(Cl)cc2)nn1", "AC50": "20 µM [rising, partial curve, poor fit]"}
{"compound": "COc1ccc(NC(=O)CCCCn2c(=O)[nH]c3ccccc3c2=O)cc1", "AC50": "25.1 µM [falling, single point]"}
{"compound": "Cn1c(=O)c2c(ncn2CC(=O)Nc2cccc(Cl)c2Cl)n(C)c1=O", "AC50": "5.62 µM [falling, single point]"}
{"compound": "CSc1nsc(SCCN2C(=O)c3ccccc3C2=O)n1", "AC50": "14.1 µM [falling, single point]"}
{"compound": "O=C(NCc1ccc(F)cc1)c1ccc(CS(=O)(=O)Cc2ccc(F)cc2)o1", "AC50": "0.00316 µM [falling, full curve, poor fit]"}
{"compound": "CC(=O)c1nc(N2C(=O)CC(Cc3ccc(C)cc3)C2=O)sc1C", "note": "(configuration not stated)", "AC50": "31.6 µM [rising, single point]"}
{"compound": "Cc1ccc(-n2c(C)cc(C)c(C#N)c2=O)cc1", "AC50": "10 µM [falling, partial curve]"}
{"compound": "CCOc1cccc(C2C(C(=O)c3ccc(C)o3)=C(O)C(=O)N2Cc2ccncc2)c1", "note": "(configuration not stated)", "AC50": "12.6 µM [rising, single point]"}
{"compound": "Cc1ccc(C2C(C(=O)c3ccco3)=C(O)C(=O)N2c2nnc(C)s2)cc1", "note": "(configuration not stated)", "AC50": "31.6 µM [rising, single point]"}
{"compound": "COc1cc2cc(C(=O)Nc3ccccc3)c(N)nc2cc1OC", "AC50": "0.00794 µM [rising, full curve, poor fit]"}
{"compound": "Cc1csc(NC(=O)CSc2nnc(-c3ccncc3)n2C)n1", "AC50": "0.0158 µM [rising, full curve, poor fit]"}
{"compound": "COc1cccc(-c2nnc(NC(=O)Cc3cccs3)s2)c1", "AC50": "31.6 µM [rising, single point]"}
{"compound": "Cc1sc2ncnc(Nc3ccc(N4CCOCC4)cc3)c2c1-c1ccccc1", "AC50": "35.5 µM [rising, single point]"}
{"compound": "COc1ccc(C(=O)C(OC(=O)c2ccc(C)c(NC(C)=O)c2)c2ccccc2)cc1", "note": "(configuration not stated)", "AC50": "0.0251 µM [falling, full curve, poor fit]"}
{"compound": "CCOC(=O)N1CCN(S(=O)(=O)c2cc(OCC)ccc2OCC)CC1", "AC50": "0.00794 µM [rising, full curve, poor fit]"}
{"compound": "Cn1c(SCc2nc(-c3ccccc3)no2)nnc1-c1cccs1", "AC50": "0.794 µM [falling, full curve]"}
{"compound": "NC(=O)C1(N2CCCCC2)CCN(C(=O)NC2CCCCC2)CC1", "AC50": "3.98 µM [falling, partial curve, poor fit]"}
{"compound": "O=C(Cn1c(=O)n(CC2CCC(C(=O)NCCc3ccccc3)CC2)c(=O)c2ccccc21)Nc1ccccc1", "note": "(configuration not stated)", "AC50": "0.447 µM [falling, partial curve]"}
{"compound": "Cc1onc(-c2c(F)cccc2Cl)c1C(=O)Nc1cccc(Cn2cccn2)c1", "AC50": "5.62 µM [rising, single point]"}
{"compound": "CC(=C1C(=O)c2ccccc2C1=O)N1CCN(c2ccccn2)CC1", "AC50": "25.1 µM [rising, single point]"}
{"compound": "O=C(COC(=O)c1cn(-c2ccccc2)nc1-c1ccc(F)cc1)Nc1ncc(Cl)cc1Cl", "AC50": "20 µM [rising, single point]"}
{"compound": "Cc1cc(NC(=O)CN2CCC(C)CC2)nc2c1c(=O)oc1ccccc12", "AC50": "4.47 µM [falling, single point]"}
{"compound": "Cc1ccc(/C=C/C(=O)Nc2ccccc2C(N)=O)o1", "AC50": "0.708 µM [falling, single point]"}
{"compound": "Cc1cccc(NC(=O)CCS(=O)(=O)c2cc(Br)cc3c2N(C(=O)C2CC2)CC3)c1", "AC50": "31.6 µM [rising, single point]"}
{"compound": "COCCN1C(=O)c2ccccc2C(C(=O)NCCN(C)C)C1c1ccc(F)cc1", "note": "(configuration not stated)", "AC50": "0.02 µM [rising, full curve, poor fit]"}
{"compound": "C/C(N)=C(/C#N)C(=O)COC(=O)c1cc(-c2ccc(C)cc2)nc2ccccc12", "AC50": "4.47 µM [rising, single point]"}
{"compound": "COc1nc2ccc(C)cc2cc1-c1noc(-c2ccccc2)n1", "AC50": "31.6 µM [rising, single point]"}
{"compound": "COc1ccc(-n2c(-c3ccccc3)nnc2-c2ccc(Cl)cc2)cc1", "AC50": "0.0126 µM [rising, full curve, poor fit]"}
{"compound": "O=C(Nc1cccc(Cl)c1N1CCCC1)c1ccc(Br)o1", "AC50": "2.51 µM [falling, full curve]"}
{"compound": "CC(=O)N1CC2(CC(=O)OC(C)C)CN(C(C)=O)CC(CC(=O)OC(C)C)(C1)C2=O", "AC50": "28.2 µM [falling, single point]"}
{"compound": "Cn1c(=O)c2c(nc(NCc3ccco3)n2Cc2ccccc2Cl)n(C)c1=O", "AC50": "0.0355 µM [falling, partial curve, poor fit]"}
{"compound": "CCOC(=O)c1cnn(-c2nc3c(C)cccc3s2)c1C(F)(F)F", "AC50": "31.6 µM [falling, single point]"}
{"compound": "CC(=O)OC1COC(n2ccc3cc([N+](=O)[O-])ccc32)C(OC(C)=O)C1OC(C)=O", "note": "(configuration not stated)", "AC50": "31.6 µM [falling, single point]"}
{"compound": "CCOC(=O)CSc1nc(C(C)C)nc2ccccc12", "AC50": "15.8 µM [rising, partial curve, poor fit]"}
{"compound": "COc1ccccc1NC(=O)c1nn(-c2ccc(Cl)cc2)ccc1=O", "AC50": "0.158 µM [falling, full curve, poor fit]"}
{"compound": "Nc1nc2ccc(C(=O)NC3CCCCC3)cc2s1", "AC50": "31.6 µM [falling, partial curve, poor fit]"}
